Test results taken from patent publication US8268874B2, “Anti-cancer compounds, synthesis thereof, and methods of using same” (University of Notre Dame du Lac, priority 2008, dated 2012).
pIC50: −log10 of the molar value.

What was measured:
[1] = tested on: human breast cancer cell line MCF-7; assay: NCI anti-cancer drug screen, growth inhibition of MCF-7 cells; format: cell-based; details: MCF7, Table 1
Excerpt: (§1) For additional details pertaining to the assay, see, for example, Shoemaker, R. H., The NCI60 Human Tumour Cell line Anticancer Drug Screen, Nature Reviews, 6: 813-823, 2006, the disclosure of which is hereby incorporated by reference in its entirety.
(§2) Briefly, the cell lines comprising the National Cancer Institute Anti-cancer Drug Screen panel were obtained and processed as described previously. After an initial acquisition, in vitro expansion was followed by cryopreservation of a large number of master stock samples, for serial rethawing at 20-passage intervals. The parental cells included the small cell lung carcinoma cell line UMCC-1, the human leukemia cell line HL-60, estrogen receptor-positive MCF7 and ZR-75B human breast carcinoma cells, and estrogen receptor-negative MDA-MB231 human breast carcinoma cells. The parental cells were grown in monolayers or in suspension in Eagle's minimum essential medium containing 10% fetal bovine serum, 2 mM L-glutamine, 100 units/ml penicillin, and 100 μg/ml streptomycin in 5% CO2 at 37° C.
(§3) The current version of COMPARE is configured to calculate pairwise correlations with the log10 of one of the specific National Cancer Institute cell line activity parameters GI50, TGI, or LC50. […]

[2] = tested on: human leukemia cell line HL-60; assay: In vitro anti-cancer activity against HL-60 cells; format: cell-based; details: Table 1
Excerpt: as §1, §2, §3

SMILES: COc1cc2c(c(OC)c1OC)-c1ccc(OC)c(=O)cc1[C@@H](NC(C)=O)CC2 [colchicine, reference compound]
- pIC50 [1]: 8.40
- pIC50 [2]: 6.92
